± gives the standard deviation of the averaged measurements. The list shows a part of the results, in another mix than the full data. Repeats in this data set agree poorly, so a single value says little.
System: FaDu
Assay: mitochondrial oxygen consumption rate normalised to cell number, Z score over the library; higher = higher oxygen consumption (negative = OCR reduction)
Conditions: treatment time 24 h, assay medium: 5 mM galactose, 5 mM pyruvate, 4 mM glutamine
Protocol: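 Primary screen: FaDu cells were incubated 24 h with Pharmakon 1600 / TDI oncology set compounds at 2 or 10 uM. Mitochondrial-specific OCR (basal minus 2 uM antimycin A) was measured on a Seahorse XF96 in assay medium with 5 mM galactose, 5 mM pyruvate and 4 mM glutamine, then corrected for Hoechst cell number and expressed as a Z score […]. Compounds that cut cell number by >66% were excluded. Two repeats.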

Row | Structure (SMILES) | mitochondrial oxygen consumption rate normalised (2 µM) | mitochondrial oxygen consumption rate normalised (10 µM)
1 | CN1[C@@H]2CC[C@H]1C[C@@H](OC(=O)C(CO)c1ccccc1)C2 (stereo partly specified) | 0.647 ± 1.5 | –
2 | C[C@]12CCC(=O)C(O)=C1CC[C@@H]1[C@@H]2CC[C@]2(C)C(=O)CC[C@@H]12 | 0.625 ± 1.1 | –
3 | CNC(C)(C)Cc1ccccc1 | 1.04 ± 0.16 | –
4 | CCOP(=S)(OCC)Oc1cc(C)nc(C(C)C)n1 | 0.915 ± 1.4 | –
5 | COc1ccc(C(CN(C)C)C2(O)CCCCC2)cc1 (stereo unspecified) | 1.39 ± 1.4 | –
6 | CNC(=O)Oc1ccc2c(c1)[C@]1(C)CCN(C)[C@@H]1N2C | 0.676 ± 0.67 | –
7 | CN(C)C(=O)Oc1cccc([N+](C)(C)C)c1 | -0.249 ± 0.36 | –
8 | CN1[C@H]2C[C@H](OC(=O)[C@H](CO)c3ccccc3)C[C@@H]1[C@@H](O)C2 | 0.172 ± 0.24 | –
9 | CN1CCc2cc3c(cc2C1O)OCO3 (stereo unspecified) | -0.398 ± 0.51 | –
10 | O=c1[nH]c2ccccc2n1C1CCN(CCCC(c2ccc(F)cc2)c2ccc(F)cc2)CC1 | -0.716 ± 0.13 | -2.35 ± 0.37
11 | CC(=O)[O][Hg][c]1ccccc1 | 0.464 ± 0.097 | –
12 | CC(=O)Nc1cc([As](=O)(O)O)ccc1O | -0.678 ± 0.61 | –
13 | C#CCN(C)[C@H](C)Cc1ccccc1 | 0.845 ± 1 | –
14 | CN(C)C(=O)Oc1ccc[n+](C)c1 | -0.929 ± 0.24 | –
15 | NCCCNCCSP(=O)(O)O [Amifostine] | 0.667 ± 0.72 | –
16 | NCCCNCCSP(=O)(O)O | 0.21 ± 0.095 | –
17 | Nc1ccc([As](=O)(O)O)cc1 | 0.332 ± 0.24 | 0.928 ± 0.83
18 | COP(=S)(OC)Oc1cc(Cl)c(Cl)cc1Cl | 0.0038 ± 0.18 | –
19 | CCCCCCCCC(=O)NCc1ccc(O)c(OC)c1 | 0.428 ± 1.4 | –

An excerpt of these results, as comma-separated lines.
Row,Structure (SMILES),mitochondrial oxygen consumption rate normalised (2 µM),mitochondrial oxygen consumption rate normalised (10 µM)
12,CC(=O)Nc1cc([As](=O)(O)O)ccc1O,-0.678 ± 0.61,–
13,C#CCN(C)[C@H](C)Cc1ccccc1,0.845 ± 1,–

— the supplement of paper PMC4962491
